The values below come from patent publication US20230338510A1, “NOVEL C[…] EPITOPE P[…] AND USE THEREOF” (SHANGHAI INSTITUTE OF MATERIA MEDICA, CHINESE ACADEMY OF …, priority 2020, published 2023).

By UniProt entry, the sequences of proteins in these tests, tags left out. Residues count along the entry.
UniProt Q9BYF1, residues 18-740: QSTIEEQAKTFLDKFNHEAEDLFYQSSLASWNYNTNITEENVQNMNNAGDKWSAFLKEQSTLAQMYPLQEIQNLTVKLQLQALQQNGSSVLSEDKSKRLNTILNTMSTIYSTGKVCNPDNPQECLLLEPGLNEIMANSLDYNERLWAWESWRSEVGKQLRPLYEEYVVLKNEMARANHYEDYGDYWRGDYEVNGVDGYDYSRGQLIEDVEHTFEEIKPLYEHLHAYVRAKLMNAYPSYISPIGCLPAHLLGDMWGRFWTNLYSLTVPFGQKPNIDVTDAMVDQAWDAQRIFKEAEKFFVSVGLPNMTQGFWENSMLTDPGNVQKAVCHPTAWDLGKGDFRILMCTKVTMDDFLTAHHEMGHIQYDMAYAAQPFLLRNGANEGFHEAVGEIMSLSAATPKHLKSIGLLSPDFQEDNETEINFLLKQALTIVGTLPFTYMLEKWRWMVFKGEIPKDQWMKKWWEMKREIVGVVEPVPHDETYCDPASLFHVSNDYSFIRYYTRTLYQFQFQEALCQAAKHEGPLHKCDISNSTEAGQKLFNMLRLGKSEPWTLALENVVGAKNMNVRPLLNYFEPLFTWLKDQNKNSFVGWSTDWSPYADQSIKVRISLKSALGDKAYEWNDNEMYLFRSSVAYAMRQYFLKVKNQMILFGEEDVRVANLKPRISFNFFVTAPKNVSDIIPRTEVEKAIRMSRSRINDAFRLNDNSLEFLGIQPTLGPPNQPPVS

No constants are given. Whether binding was seen depends on the method and setting. Some entries that bind do so weakly or less than the wild type.

The target in test [1] is T1, human ACE2 (Homo sapiens, UniProt Q9BYF1). Description: ELISA, ACE2-coated plate (10 ug/mL), biotin-labelled LP2 at 1, 0.5 and 0.25 ug/mL, HRP-streptavidin.
The target of test [2] is T1, human ACE2. Description: ELISA (FIG. 10 legend).

With AKFVAAWTLKAAAGGGGYGFQPTNGVGYQPGGGGNYLYRLFRKSNLKPF (labeled with biotin (site not stated) in the ACE2 binding ELISA) [polypeptide LP2], the binding entry with human ACE2 [1] and in the test with human ACE2 [2] was “binds” each time.
